Assay [1] has as its target 3×FLAG-tagged N-terminus-truncated NS1 protein (amino acids 79–230) of influenza A virus PR8(H1N1) (influenza virus A/PR8/34 (H1N1)) (UniProt P03496). Kind of assay: co-IP.
In assay [2] the target is 3×FLAG-tagged full-length NS1 protein of influenza A virus PR8(H1N1) (influenza virus A/PR8/34 (H1N1)) (UniProt P03496). In words: co-IP.

Chains of the proteins cited; added tags and fusions are not shown. Lines headed by an entry give the natural chain unless they say otherwise; changes in a name come on top.
UniProt P03496: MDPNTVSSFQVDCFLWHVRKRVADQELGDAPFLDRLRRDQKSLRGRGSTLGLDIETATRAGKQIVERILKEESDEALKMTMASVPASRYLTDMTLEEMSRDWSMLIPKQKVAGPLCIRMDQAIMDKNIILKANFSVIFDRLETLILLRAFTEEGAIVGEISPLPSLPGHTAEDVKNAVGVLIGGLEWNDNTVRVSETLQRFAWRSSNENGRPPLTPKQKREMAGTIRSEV

No constants are given. Whether binding was seen depends on the method and setting. In cells and extracts the contact can be indirect. Some binding calls cover weakened binding; strength is not graded here. Tags and fused reporters may be left off the sequences shown.

B1: Myc-tagged 14-3-3γ (protein, UniProt P61981 1-247)
chain: MVDREQLVQKARLAEQAERYDDMAAAMKNVTELNEPLSNEERNLLSVAYKNVVGARRSSWRVISSIEQKTSADGNEKKIEMVRAYREKIEKELEAVCQDVLSLLDNYLIKNCSETQYESKVFYLKMKGDYYRYLAEVATGEKRATVVESSEKAYSEAHEISKEHMQPTHPIRLGLALNYSVFYYEIQNAPEQACHLAKTAFDDAIAELDTLNEDSYKDSTLIMQLLRDNLTLWTSDQQDDDGGEGNN
Turning to B1, the binding entry in assay [1] and in assay [2] was “binds” throughout.

The values are drawn from paper PMC9321973.
